Read-outs that look alike come from different tables or passages of the source. Results are given in words; binding and its absence hold for the method and conditions named. In cells and extracts the contact can be indirect. These calls come from enrichment with a bait or labelling near it, and not all partners need be listed.

By UniProt entry, the sequences of proteins in these tests, tags left out. Residues count along the entry.
UniProt O60603: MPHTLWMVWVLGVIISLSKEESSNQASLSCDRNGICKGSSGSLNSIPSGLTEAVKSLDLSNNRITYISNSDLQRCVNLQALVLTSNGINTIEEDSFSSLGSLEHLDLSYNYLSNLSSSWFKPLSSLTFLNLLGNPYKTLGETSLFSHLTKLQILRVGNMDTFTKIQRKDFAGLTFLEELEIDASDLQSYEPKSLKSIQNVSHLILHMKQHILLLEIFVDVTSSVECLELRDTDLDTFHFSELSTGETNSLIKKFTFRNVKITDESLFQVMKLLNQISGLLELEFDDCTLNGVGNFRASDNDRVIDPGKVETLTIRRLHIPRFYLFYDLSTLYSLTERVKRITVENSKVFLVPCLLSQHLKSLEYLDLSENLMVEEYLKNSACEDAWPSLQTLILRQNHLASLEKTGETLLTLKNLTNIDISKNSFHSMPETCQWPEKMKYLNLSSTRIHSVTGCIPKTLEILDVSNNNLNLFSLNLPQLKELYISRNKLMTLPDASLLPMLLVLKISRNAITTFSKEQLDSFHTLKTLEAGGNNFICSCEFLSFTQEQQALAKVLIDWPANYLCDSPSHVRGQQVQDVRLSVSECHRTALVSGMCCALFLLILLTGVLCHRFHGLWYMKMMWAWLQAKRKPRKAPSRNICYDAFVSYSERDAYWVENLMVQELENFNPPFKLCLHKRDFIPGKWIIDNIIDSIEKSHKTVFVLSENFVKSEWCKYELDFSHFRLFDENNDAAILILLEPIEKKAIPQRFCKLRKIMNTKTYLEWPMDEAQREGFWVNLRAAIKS
UniProt P53396: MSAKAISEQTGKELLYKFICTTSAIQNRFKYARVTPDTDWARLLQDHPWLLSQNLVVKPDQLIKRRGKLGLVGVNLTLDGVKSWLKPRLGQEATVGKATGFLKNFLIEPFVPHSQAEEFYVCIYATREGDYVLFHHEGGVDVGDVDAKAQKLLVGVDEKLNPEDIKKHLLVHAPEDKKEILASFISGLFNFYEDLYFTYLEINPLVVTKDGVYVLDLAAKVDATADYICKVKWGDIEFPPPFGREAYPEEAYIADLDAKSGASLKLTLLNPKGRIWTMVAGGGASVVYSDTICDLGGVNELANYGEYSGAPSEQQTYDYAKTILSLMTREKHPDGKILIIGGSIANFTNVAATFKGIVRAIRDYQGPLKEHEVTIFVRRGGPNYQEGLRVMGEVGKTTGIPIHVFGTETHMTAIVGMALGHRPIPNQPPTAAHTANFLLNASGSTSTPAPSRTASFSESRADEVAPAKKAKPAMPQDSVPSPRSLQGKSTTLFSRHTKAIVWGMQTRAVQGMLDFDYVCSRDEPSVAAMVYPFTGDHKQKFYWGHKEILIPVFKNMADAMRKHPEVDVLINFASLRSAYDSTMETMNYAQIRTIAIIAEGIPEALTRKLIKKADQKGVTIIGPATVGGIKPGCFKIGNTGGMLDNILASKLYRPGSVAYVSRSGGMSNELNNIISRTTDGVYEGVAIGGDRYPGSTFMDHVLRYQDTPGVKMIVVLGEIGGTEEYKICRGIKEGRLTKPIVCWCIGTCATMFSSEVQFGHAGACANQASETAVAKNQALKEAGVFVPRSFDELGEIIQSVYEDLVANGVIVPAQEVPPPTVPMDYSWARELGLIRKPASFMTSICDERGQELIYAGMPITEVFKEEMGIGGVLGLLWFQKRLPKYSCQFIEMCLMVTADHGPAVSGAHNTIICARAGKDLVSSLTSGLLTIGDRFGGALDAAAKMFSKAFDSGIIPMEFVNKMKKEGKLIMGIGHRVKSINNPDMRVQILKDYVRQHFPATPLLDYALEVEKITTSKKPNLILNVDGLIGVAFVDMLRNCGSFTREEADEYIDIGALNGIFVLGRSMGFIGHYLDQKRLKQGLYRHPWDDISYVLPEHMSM
UniProt P61163: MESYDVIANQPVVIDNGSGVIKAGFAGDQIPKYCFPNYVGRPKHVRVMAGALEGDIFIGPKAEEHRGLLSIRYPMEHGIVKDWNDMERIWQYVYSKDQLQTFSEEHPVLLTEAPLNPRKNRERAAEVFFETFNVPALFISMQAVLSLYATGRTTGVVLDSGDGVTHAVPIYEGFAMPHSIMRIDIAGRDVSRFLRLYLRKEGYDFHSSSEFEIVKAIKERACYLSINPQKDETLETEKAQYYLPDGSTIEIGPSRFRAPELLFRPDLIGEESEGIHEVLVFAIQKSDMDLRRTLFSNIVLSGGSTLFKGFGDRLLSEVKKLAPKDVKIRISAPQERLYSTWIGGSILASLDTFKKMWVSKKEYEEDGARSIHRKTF
UniProt P14625, residues 22-803: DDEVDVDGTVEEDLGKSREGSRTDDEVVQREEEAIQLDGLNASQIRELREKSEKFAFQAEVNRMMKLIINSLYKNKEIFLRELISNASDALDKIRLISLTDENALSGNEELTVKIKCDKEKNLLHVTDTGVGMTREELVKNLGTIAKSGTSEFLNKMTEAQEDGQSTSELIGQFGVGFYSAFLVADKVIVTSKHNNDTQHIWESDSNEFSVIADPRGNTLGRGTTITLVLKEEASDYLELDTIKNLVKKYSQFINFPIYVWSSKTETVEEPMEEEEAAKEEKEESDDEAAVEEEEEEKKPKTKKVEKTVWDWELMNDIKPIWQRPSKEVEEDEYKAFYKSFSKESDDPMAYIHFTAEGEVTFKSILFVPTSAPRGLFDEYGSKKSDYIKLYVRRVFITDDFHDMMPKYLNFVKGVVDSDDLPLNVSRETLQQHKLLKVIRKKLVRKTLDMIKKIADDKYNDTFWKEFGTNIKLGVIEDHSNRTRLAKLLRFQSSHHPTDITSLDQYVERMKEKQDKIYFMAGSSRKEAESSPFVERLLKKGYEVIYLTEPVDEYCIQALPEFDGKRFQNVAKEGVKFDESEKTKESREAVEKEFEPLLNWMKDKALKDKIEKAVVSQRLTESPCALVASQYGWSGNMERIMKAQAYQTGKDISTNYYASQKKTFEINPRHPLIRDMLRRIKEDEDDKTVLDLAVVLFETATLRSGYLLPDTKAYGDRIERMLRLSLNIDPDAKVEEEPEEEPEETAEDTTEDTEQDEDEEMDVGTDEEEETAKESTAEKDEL

For assay [1], the target named is HA-tagged human Toll-like receptor 2 (human) (UniProt O60603). In words: affinity purification with mass spectrometry.
The target is the same in assay [2]. In words: affinity purification with mass spectrometry. This is another data set of the same source.

Turning to “ATP citrate lyase (from UniProt P53396 1-1101) (enzyme)”, the binding entry in assay [1] is listed as “binds”. On the same count and under the same terms, then “alpha-centractin (from UniProt P61163 1-376)”, with “binds”.

“heat shock protein 90-beta (HSP90B1) (from UniProt P14625 22-803)”: the binding result in assay [1] was “binds”.

B1: myristoylated alanine-rich C kinase substrate-like protein 1 (protein, UniProt P49006 1-195)
chain: MGSQSSKAPRGDVTAEEAAGASPAKANGQENGHVKSNGDLSPKGEGESPPVNGTDEAAGATGDAIEPAPPSQGAEAKGEVPPKETPKKKKKFSFKKPFKLSGLSFKRNRKEGGGDSSASSPTEEEQEQGEIGACSDEGTAQEGKAAATPESQEPQAKGAEASAASEEEAGPQATEPSTPSGPESGPTPASAEQNE
Regarding B1, in assay [2], the binding result is “binds”.

Source of the values: doi:10.1101/530402.
